Measured values from PubChem BioAssay AID1347426 (Functional Genomics Laboratory (NCATS/FGL), 2020).
Out of some 31,000 sequences screened, about 1,400 (4.5%) were called active.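 Rule for the calls: active = median seed-adjusted z-score above 1 or below -1; inactive = the rest.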 This is one part of the list.

test: Novel Modifiers of Survival Motor Neuron (SMN) Protein: Gene Identification via Genome-wide siRNA Screen; conditions: HEK293T SMN2-luciferase reporter, siRNA knockdown, 72 h; actives lie on both sides;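 note: luminescence tracks full-length SMN protein made from the SMN2 reporter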
Outline: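 HEK293T cells stably carrying an SMN2 promoter/splicing cassette–luciferase reporter were reverse-transfected with 1 pmol siRNA per well (druggable-genome library, 3 siRNAs per gene) and grown 72 h at 37 °C. Luminescence, normalized to negative-control siRNA and log10-transformed, was scored as MAD.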

| Sequence | median seed-adjusted z-score |
| --- | --- |
| CCCAAGAACUGCUACGUCATT against SMPD2 | inactive: -0.406 |
| CGAGCAGUAUGAAUAUCAUTT against CDC45L | inactive: -0.599 |
| AGUGAGCACCCUUACCUGATT against NOTCH3 | inactive: 0.395 |
| GAUCCACGUUUCAAUGAUATT against CSNK2A1 | inactive: -0.408 |
| GGAGGGUGCAUGUACAUCUTT against ORC1L | inactive: -0.536 |
| GAAUGACUGAUGAAGUCGATT against KIF15 | inactive: -0.873 |
| GCUCUGAUCUUCGAAAACATT against ZNF596 | inactive: 0.486 |
| GCCUCAACAUCGACGGCAATT against DIRAS1 | inactive: -0.751 |
| UGACAGCUGUAGCAACUUUTT against SH3BP5 | inactive: -0.707 |
| GCAUUUAUCCGAGGAAACATT against LSM6 | inactive: -0.0501 |
| AGUCACAACUGGUCUAUCATT against LGALS3BP | inactive: 0.187 |
| ACAUAUCCUCAGAAUUUAATT against UBE2T | inactive: -0.0157 |
| UCAGUUACCUGCAUACCAATT against AEBP1 | inactive: -0.0536 |
| GGAACAACGACAAGACAGATT against MICAL1 | inactive: 0.31 |
| GCAUUUCCGCGAGUGAGAATT against UCKL1 | inactive: 0.695 |
| CGAUUCUACUGGAUGCAUUTT against SNUPN | inactive: -0.199 |
| GGUCAAAUGAAGAUAGAUUTT against MOV10L1 | inactive: -0.0497 |
| GAUGAAUUCUGGAGACGAUTT against PROZ | inactive: -0.422 |
| CGAGGACACUCAAACGGAUTT against TAF7L | inactive: -0.14 |
| AACUUACAGAGAAAGAAUUTT against RCVRN | inactive: 0.562 |
| AGCGAUCCAAGUUCAAGAATT against DLX1 | inactive: 0.0356 |
| CCCAGGCCGUAUUCCAGAATT against RABGGTA | inactive: -0.0601 |

Reformatted field by field: entries from further up
AGUGAGCACCCUUACCUGATT against NOTCH3
  median seed-adjusted z-score: inactive: 0.395
GAAUGACUGAUGAAGUCGATT against KIF15
  median seed-adjusted z-score: inactive: -0.873

At a glance, some entries already given:

| Sequence | median seed-adjusted z-score |
| --- | --- |
| GGAGGGUGCAUGUACAUCUTT against ORC1L | inactive: -0.536 |
| GAAUGACUGAUGAAGUCGATT against KIF15 | inactive: -0.873 |
| GCUCUGAUCUUCGAAAACATT against ZNF596 | inactive: 0.486 |

(cont.)

| Sequence | median seed-adjusted z-score |
| --- | --- |
| GGAUAUGGUGAGAAUAGAATT against MTHFS | inactive: 0.166 |
| GCUUCAUUGAGGACCCUGATT against PLEKHJ1 | inactive: -0.213 |
| CCUCCGGAGAGAAAAAUGATT against NXF2 | inactive: -0.0513 |
| GGAACCAUCGCAAAAUUAUTT against ZNF625 | inactive: -0.0711 |
| GCACGACGGUUUUCCUAGATT against LRRN1 | inactive: -0.407 |
| GCAUAUACCCGCAUAGUUUTT against SPAM1 | inactive: 0.518 |
| GCUUGUGGUUUCACCCUGATT against NME1 | inactive: 0.188 |
| GGGUCUUACGAAUGCGGAATT against ZNF618 | inactive: 0.311 |
| CUCUGGUGGUGGACGUUAATT against TYMP | inactive: -0.249 |
| CACUAGUUCUAUGACCAUUTT against IMPG1 | inactive: -0.252 |
| GCAUGUCGGGUUAUUAGAATT against PCCA | inactive: 0 |
| AGACAUGCUUCGGAAGGAUTT against TGIF2 | inactive: -0.304 |
| GGUGCUACGUGGUGAAGGATT against HGFAC | inactive: 0.021 |
| ACAUCCUUAUCGACCUCAATT against PIM1 | inactive: -0.409 |
| UCUGGGAUGUCAAUCCUAATT against ST3GAL4 | inactive: 0.245 |
| CUGUUGAGCUAGCACAUUATT against FOLH1 | inactive: 0.148 |
| CCACCUCUGGAACAAGAUUTT against CAPN3 | inactive: 0.0426 |
| GGAUAGAAUAUGUAACGGUTT against SUPT6H | active: -2.54 |
| CGAGAAUACUGGAACAAUATT against CAPN2 | inactive: -0.0828 |
| CCUCCAUGAUGACUAGCGATT against TMEM8 | inactive: -0.551 |
| GCAAGGAUGUCUAAGCUAATT against SLC2A4RG | inactive: -0.0232 |
| CUGUACUUAUAGUUGCUAATT against ARL4A | inactive: -0.572 |

| Sequence | median seed-adjusted z-score |
| --- | --- |
| GGAUCGCAGUCGAUCAAGATT against RBM25 | inactive: -0.265 |
| GCAAGGUGCGUGAGGAGUATT against TUBB3 | inactive: 0.208 |
| AUAUCACCGAUGAUACAUATT against CCNA1 | inactive: -0.203 |
| AGCUGCCUGUAGUUAGGAATT against POMC | inactive: 0.374 |
| GGAGAUCACAGACCUGAGATT against KRT15 | inactive: 0.756 |
| GGAACGGACCUACUCAACATT against EPHA7 | inactive: -0.172 |
| CGGUCGACAGGAUUCCAAATT against DDEFL1 | inactive: 0.293 |
| GGAUUAAGAACAGUCGAAATT against MPDZ | inactive: -0.398 |
| GAAGUAAACCUUUCAUUUATT against AMY2A | inactive: -0.266 |
| GAGCCUGACUGUUCACACATT against GPS2 | inactive: 0 |
| GGUCGAAUCCAGUAGAAAATT against TERF2 | inactive: 0.246 |
| CCCUGUCCUUAAUAACUUATT against ABL2 | inactive: 0.293 |
| CUACGGCAACAGACAAGAATT against MRC1 | inactive: 0.179 |
| GGACUGAAGUGGACUGGAUTT against SYTL2 | inactive: 0.211 |
| CAAAGGAGACGGAAAAGGATT against DRD3 | inactive: 0.0447 |
| CCUAGUAUCUGUAAGCGAATT against PLA2R1 | inactive: -0.0304 |
| GCCUUACUCUGAUCUGGUATT against IL1RAP | inactive: -0.23 |
| GGAGGUCUAUAUUAUAAGATT against CFHR4 | inactive: -0.0972 |
| GGAAUACGCUGAAUCCAUATT against RAB31 | inactive: 0.41 |
| GUGAAGAAGCUAAUGAAGATT against PLCXD2 | inactive: -0.0211 |
| UCUCCUAUGUGAUGCUGAATT against DPM2 | inactive: -0.419 |
| UAAUGUAUCUGUGAUGUUATT against VAPB | inactive: 0.254 |

| Sequence | median seed-adjusted z-score |
| --- | --- |
| GUGCUGCAAAGGAUAUAAATT against CCBE1 | inactive: 0.964 |
| GGCACGGUCUGGUUCAUUUTT against ZNF580 | inactive: 0.437 |
| GGAUGCGUUUUCUGACAAATT against GPR149 | inactive: -0.186 |
| AAGUAGAACCUGCAAACAATT against DDX19B | inactive: -0.298 |
| UGAUGAAGUUUCACAAGUATT against RNMTL1 | inactive: 0.174 |
| GGAACAAUUCGUAACUAGATT against NECAB1 | inactive: 0.0268 |
| GAAGAUGUAUGGAAUUCUUTT against DARC | inactive: 0.0814 |
| CACUAUCCAUAUACGUAUUTT against AGTPBP1 | inactive: -0.201 |
| CCCAGACAAAUUACCUAUATT against CAD | active: 2.37 |
| GAAUUUACAUAUCAGACUATT against RBKS | inactive: 0.229 |
| GCUGAUCCGCUUUUCUACATT against GBGT1 | inactive: 0.48 |
| AGAUUUUCCUUGAUGCAUUTT against CA3 | inactive: -0.276 |
| CCCUUUCAGUGUAGACAAUTT against ZNF490 | inactive: 0.00954 |
| GCUGAUAUGGGAUCACGCATT against PAQR6 | inactive: 0.632 |
| GACAGAAUAUGGUUCACGATT against ROR2 | inactive: 0 |
| CGAUGGGUUGUAUAUACUATT against NDUFA12 | inactive: -0.377 |
| AGCAGAAAAUGGUCAACUATT against TWF2 | inactive: 0.303 |
| GGUAUUCAGAAACUACAAATT against GNPAT | inactive: 0.111 |
| GAGACGGACUGGUUUGAUATT against BSN | inactive: 0.116 |
| GGCUCUACCAAGUAGAAUATT against PSMA6 | inactive: -0.768 |
| UCUUUGUGGUGGACAGUAATT against ARF5 | inactive: -0.507 |
| CAGCAGAAACGGAAUGGAATT against MBNL2 | inactive: -0.675 |

| Sequence | median seed-adjusted z-score |
| --- | --- |
| CGUCGAAAGCGGAUUCCAATT against DIAPH2 | inactive: -0.0149 |
| GGACUUCCAUCGAUUCUAUTT against CAMK2A | inactive: 0.396 |
| CACGAUAUCAUGUUACUAATT against CMA1 | inactive: -0.0475 |
| GAAGGACGAUUACUAGCAATT against GABRQ | inactive: -0.54 |
| GGAUCUAAUUAGUCGAAGATT against ARHGAP21 | inactive: 0.229 |
| AGAUCGUCCCUGUUGGUGATT against STK35 | inactive: 0.519 |
| CGAUGUUUGAUAUUGAAUATT against SIRT1 | inactive: 0 |
| GCAAAGAUAAACUACCAAATT against ADI1 | inactive: 0.0593 |
| CUCUAAAGAUGGUGGAUGATT against HPSE | inactive: 0.153 |
| CUAACCCUAUUGUUCGCAATT against PZP | inactive: -0.878 |
| CAAUCAGGAGGUUAAGGAATT against RCAN2 | inactive: -0.185 |
| AUCUACUCCUUUACUCUUATT against NAT1 | inactive: -0.0665 |
| GAUUUCUAAUUAACACAAUTT against POLR1D | inactive: -0.0409 |
| CGUGAGUACAUGAACAAGATT against UBE4A | inactive: -0.285 |
| GCCGUUGCAUCAUGGAUUATT against TNPO1 | inactive: 0.688 |
| UGCUGGUCACUUUCGAAGATT against INTS6 | inactive: -0.0163 |
| GCUCGUCUACUUCACGAAATT against CUL9 | inactive: 0.399 |
| GGUUCUGGAUUCAAGCAUATT against MTERF | inactive: 0.432 |
| GGCUUGGAGAUUUCCGGAATT against AP2B1 | inactive: -0.214 |

Reformatted as tab-separated lines: entries from further up
Sequence	median seed-adjusted z-score
GCAAGGUGCGUGAGGAGUATT against TUBB3	inactive: 0.208
AUAUCACCGAUGAUACAUATT against CCNA1	inactive: -0.203
